# Reference: the supplement of paper PMC12067093, “Discovery and optimisation of a covalent ligand for TRIM25 and its application to targeted protein ubiquitination” (Chemical Science, 2025)
# Protein sequences, listed by entry. Tags and fused reporters are not part of them. Lines headed by an entry give the natural chain unless they say otherwise; changes in a name come on top.
# UniProt Q15633: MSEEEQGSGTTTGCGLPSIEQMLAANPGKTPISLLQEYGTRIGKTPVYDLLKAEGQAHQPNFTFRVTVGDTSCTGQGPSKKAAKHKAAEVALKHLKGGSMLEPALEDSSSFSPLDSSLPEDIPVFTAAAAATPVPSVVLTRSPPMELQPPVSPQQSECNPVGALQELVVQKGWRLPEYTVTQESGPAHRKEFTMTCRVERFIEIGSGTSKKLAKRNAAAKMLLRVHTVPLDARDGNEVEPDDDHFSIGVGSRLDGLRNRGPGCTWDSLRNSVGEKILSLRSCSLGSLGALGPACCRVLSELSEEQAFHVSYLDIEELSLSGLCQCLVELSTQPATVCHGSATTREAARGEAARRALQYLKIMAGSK
# UniProt Q86VP1, whole entry, looked up: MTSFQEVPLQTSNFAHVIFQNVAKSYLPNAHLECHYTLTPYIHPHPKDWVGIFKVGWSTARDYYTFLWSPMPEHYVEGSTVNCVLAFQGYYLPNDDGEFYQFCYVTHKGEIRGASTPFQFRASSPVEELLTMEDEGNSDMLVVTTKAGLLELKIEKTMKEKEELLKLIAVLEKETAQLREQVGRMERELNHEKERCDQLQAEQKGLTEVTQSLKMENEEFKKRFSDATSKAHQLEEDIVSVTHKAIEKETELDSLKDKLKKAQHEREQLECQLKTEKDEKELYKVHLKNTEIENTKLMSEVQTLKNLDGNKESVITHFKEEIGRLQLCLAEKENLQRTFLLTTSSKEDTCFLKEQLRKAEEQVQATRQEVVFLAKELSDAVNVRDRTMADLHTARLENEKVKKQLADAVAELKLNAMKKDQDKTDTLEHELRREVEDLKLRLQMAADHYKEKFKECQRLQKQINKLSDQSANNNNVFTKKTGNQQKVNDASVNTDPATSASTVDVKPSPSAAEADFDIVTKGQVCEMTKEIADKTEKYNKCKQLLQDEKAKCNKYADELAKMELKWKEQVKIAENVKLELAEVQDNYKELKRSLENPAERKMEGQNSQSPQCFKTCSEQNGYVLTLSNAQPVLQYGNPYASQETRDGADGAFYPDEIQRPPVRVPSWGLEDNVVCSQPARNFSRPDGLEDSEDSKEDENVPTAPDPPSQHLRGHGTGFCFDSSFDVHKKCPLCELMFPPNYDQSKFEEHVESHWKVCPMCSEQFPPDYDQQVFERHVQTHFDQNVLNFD
# UniProt Q9UGU0: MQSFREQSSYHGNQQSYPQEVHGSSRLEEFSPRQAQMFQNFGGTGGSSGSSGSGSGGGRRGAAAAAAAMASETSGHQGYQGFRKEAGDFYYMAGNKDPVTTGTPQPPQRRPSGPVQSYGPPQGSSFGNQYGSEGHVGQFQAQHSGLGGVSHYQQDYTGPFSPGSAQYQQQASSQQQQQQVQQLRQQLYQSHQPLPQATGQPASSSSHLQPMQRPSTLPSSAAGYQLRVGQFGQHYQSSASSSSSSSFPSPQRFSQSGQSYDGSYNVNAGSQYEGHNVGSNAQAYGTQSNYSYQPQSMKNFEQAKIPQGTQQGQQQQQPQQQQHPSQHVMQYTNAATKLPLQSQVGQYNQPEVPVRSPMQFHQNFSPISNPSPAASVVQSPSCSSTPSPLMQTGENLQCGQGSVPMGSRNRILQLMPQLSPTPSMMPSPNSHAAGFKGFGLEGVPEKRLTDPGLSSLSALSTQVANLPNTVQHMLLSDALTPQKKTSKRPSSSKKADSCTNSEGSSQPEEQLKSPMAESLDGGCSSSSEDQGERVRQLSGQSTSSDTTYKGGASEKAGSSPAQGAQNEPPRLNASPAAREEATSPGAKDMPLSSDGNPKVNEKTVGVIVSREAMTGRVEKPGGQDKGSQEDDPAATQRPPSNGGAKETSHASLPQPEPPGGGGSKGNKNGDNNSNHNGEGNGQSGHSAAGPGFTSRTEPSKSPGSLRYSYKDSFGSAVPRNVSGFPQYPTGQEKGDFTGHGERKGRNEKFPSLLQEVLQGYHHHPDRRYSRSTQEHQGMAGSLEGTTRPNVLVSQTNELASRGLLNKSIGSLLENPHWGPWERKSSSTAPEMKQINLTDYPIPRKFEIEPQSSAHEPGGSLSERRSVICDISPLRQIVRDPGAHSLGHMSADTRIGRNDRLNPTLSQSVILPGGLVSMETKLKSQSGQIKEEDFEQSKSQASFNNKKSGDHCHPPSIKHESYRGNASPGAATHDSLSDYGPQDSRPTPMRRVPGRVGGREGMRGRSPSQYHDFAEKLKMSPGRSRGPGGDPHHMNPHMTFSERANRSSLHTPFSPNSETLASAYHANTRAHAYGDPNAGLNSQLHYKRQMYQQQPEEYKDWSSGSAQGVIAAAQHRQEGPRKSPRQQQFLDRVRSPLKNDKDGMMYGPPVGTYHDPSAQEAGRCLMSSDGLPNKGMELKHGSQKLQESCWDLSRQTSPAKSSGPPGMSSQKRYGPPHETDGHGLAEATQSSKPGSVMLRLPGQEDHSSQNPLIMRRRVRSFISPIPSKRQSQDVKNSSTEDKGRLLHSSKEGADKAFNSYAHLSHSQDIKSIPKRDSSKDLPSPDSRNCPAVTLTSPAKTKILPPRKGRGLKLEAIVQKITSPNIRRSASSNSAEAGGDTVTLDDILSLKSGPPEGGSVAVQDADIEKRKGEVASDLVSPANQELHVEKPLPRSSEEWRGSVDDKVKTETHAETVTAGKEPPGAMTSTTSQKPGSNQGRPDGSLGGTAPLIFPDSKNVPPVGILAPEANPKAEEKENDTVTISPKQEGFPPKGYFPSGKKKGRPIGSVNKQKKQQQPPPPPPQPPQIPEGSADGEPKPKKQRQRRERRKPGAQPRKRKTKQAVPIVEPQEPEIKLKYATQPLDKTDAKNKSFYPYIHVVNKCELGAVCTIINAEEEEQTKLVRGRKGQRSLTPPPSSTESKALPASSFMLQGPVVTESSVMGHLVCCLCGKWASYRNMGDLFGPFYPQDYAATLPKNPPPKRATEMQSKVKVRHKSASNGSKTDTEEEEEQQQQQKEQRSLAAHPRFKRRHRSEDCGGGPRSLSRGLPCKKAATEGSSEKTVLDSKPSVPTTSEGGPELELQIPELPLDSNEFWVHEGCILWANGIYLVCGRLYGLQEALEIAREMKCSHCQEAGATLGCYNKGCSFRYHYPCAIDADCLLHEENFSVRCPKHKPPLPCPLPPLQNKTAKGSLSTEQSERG
# UniProt Q6P1N9: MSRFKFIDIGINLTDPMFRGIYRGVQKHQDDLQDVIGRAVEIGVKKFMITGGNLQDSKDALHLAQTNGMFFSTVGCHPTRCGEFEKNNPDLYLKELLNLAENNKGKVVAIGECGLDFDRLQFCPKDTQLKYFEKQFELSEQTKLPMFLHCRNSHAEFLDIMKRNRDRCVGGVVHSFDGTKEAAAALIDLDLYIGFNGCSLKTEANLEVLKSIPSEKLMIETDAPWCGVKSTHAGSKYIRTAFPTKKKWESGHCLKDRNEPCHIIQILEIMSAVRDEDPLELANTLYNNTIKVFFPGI
# UniProt P20226, whole entry, looked up: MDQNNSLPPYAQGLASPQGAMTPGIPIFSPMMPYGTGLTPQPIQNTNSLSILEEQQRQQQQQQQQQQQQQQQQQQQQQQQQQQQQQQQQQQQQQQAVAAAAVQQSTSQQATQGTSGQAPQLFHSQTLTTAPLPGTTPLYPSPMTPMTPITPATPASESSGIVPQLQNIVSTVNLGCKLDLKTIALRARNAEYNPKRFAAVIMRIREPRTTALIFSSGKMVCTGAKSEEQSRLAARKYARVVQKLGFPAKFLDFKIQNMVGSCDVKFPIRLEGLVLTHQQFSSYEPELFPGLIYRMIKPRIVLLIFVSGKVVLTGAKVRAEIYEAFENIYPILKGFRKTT
# UniProt Q13488, whole entry, looked up: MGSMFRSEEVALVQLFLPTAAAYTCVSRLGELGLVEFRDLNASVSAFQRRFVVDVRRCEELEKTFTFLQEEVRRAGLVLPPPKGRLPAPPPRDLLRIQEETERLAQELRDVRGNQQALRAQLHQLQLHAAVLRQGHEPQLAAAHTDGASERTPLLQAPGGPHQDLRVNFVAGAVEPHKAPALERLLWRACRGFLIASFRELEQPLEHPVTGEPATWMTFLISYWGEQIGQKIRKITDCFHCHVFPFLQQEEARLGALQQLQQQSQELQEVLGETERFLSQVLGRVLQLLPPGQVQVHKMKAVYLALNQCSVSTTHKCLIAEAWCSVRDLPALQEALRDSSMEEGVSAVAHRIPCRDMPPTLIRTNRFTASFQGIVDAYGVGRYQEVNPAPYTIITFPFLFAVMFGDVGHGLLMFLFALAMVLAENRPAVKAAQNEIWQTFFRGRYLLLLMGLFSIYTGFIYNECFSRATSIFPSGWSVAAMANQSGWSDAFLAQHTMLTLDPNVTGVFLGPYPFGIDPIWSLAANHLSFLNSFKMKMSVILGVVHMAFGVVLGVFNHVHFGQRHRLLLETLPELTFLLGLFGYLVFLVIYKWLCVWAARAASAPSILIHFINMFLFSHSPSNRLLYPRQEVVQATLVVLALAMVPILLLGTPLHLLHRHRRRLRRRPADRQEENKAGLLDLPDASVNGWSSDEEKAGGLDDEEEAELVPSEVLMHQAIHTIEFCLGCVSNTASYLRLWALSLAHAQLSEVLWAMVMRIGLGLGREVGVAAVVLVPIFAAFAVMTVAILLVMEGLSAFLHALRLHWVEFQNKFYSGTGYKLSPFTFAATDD
# UniProt Q99426: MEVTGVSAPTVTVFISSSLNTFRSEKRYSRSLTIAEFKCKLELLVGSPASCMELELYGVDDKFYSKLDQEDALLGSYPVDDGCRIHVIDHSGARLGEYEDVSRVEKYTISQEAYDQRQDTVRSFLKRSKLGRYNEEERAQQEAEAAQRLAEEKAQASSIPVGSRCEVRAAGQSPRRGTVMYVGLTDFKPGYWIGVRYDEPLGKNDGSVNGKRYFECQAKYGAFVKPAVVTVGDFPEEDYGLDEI
# UniProt Q96EI5: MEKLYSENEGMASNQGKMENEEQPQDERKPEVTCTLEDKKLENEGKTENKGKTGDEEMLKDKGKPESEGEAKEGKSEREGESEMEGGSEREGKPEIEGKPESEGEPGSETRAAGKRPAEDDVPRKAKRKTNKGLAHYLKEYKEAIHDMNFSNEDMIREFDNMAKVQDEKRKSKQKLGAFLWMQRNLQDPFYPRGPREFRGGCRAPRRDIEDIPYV
# UniProt Q6P1X5, whole entry, looked up: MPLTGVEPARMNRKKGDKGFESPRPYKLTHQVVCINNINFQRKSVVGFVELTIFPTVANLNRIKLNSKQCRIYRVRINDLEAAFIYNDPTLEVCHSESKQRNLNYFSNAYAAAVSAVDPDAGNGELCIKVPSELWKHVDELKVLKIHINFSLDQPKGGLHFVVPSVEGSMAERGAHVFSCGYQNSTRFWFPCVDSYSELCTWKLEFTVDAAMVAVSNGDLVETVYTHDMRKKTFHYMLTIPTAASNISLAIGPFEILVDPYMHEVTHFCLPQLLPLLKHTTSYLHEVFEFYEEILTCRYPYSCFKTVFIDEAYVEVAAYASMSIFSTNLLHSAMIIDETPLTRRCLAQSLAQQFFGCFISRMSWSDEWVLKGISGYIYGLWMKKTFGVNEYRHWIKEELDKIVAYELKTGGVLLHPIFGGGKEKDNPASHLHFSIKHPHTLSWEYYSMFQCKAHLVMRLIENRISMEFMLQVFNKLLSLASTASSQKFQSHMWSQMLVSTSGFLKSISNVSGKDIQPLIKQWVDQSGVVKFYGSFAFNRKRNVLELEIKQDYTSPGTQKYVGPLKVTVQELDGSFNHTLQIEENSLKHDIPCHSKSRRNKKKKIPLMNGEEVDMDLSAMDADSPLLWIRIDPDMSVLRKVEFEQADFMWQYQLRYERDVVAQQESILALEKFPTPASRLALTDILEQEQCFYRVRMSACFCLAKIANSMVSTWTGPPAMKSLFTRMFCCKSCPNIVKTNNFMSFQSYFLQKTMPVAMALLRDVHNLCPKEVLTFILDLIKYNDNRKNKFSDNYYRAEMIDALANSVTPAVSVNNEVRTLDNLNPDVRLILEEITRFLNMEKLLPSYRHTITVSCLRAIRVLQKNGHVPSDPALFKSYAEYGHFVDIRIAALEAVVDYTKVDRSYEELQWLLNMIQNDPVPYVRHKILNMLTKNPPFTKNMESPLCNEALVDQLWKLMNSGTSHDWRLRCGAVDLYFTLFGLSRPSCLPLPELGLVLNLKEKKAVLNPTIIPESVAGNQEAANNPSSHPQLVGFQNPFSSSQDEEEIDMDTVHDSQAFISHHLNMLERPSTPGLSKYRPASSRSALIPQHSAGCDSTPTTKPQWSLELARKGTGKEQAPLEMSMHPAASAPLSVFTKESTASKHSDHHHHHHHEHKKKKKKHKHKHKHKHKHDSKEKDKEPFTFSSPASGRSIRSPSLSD
# UniProt Q15814: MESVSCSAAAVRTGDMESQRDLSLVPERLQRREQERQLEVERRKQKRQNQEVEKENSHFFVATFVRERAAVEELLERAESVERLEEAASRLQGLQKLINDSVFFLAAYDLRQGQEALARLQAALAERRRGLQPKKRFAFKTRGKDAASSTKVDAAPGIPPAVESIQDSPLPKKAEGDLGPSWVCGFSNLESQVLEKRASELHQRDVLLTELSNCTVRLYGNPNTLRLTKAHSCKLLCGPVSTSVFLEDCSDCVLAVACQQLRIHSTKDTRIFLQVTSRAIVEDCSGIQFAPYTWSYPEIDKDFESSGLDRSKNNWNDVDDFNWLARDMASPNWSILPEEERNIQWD
# This is one part of the list.
# Compound: Cc1cc(ccc1-c1ccccc1)C(=O)N1CCCN(CC1)C(=O)CCl [compound 10]
# Assay: probe-labelled cysteine peptide fold change vs DMSO (competition) (log2 fold change); higher = less target engagement (more negative = stronger competition)
# Conditions: 10 µM; THP-1; incubation time: 4 h
# 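Further: competitive profiling in live THP-1 cells: cysteine peptides tagged with an iodoacetamide desthiobiotin (IA-DTB) probe, intensity after compound treatment relative to DMSO-treated cells.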
row,Target,probe-labelled cysteine peptide fold change
1,TBL3_Q12788_129_AIHTAPVATMAFDPTSTLLATGGCDGAVR (UniProt Q12788),0.169
2,TARBP2_Q15633_73_VTVGDTSCTGQGPSK (UniProt Q15633),0.0896
3,TAX1BP1_Q86VP1_196_CDQLQAEQK (UniProt Q86VP1),-0.183
4,TCEANC2_Q96MN5_163_ETFHLCSR (UniProt Q96MN5),0.315
5,TCF20_Q9UGU0_498_KADSCTNSEGSSQPEEQLK (UniProt Q9UGU0),-0.092
6,TBL3_Q12788_526_GLWCVQFSPMDQVLATASADGTIK (UniProt Q12788),0.119
7,TANK_Q92844_318_TKPSNLVNTCIR (UniProt Q92844),-0.257
8,SZT2_Q5T011_865_HTCVVQYILFPPHSTSTK (UniProt Q5T011),-0.141
9,TAX1BP1_Q86VP1_196_ERCDQLQAEQK (UniProt Q86VP1),-0.325
10,TAF5_Q15542_273_FHGDQECYYQDDLR (UniProt Q15542),-0.184
11,SYNGR2_O43760_59_QMYCVFNR (UniProt O43760),-0.0823
12,TARS_P26639_107_TTPYQIACGISQGLADNTVIAK (UniProt P26639),0.0295
13,TATDN1_Q6P1N9_226_LMIETDAPWCGVK (UniProt Q6P1N9),-0.116
14,TBP_P20226_221_MVCTGAK (UniProt P20226),-0.146
15,TCIRG1_Q13488_238+241_KITDCFHCHVFPFLQQEEAR (UniProt Q13488),-0.0689
16,TBC1D9B_Q66K14_876_ELFASLTPWACGSHTPLLAGR (UniProt Q66K14),-0.0144
17,TATDN1_Q6P1N9_76_DALHLAQTNGMFFSTVGCHPTR (UniProt Q6P1N9),0.0651
18,SYNE1_Q8NF91_6460_NLFSQAFPENGDNRDVIEDTLGCLLGR (UniProt Q8NF91),0.0214

row,Target,probe-labelled cysteine peptide fold change
1,TBCB_Q99426_216_YFECQAK (UniProt Q99426),-0.0957
2,TANC1_Q9C0D5_1003_KGQCALVHSALR (UniProt Q9C0D5),-0.0351
3,TAP1_Q03518_722_KPCVLILDDATSALDANSQLQVEQLLYESPER (UniProt Q03518),0.0289
4,TBL3_Q12788_728_HCHEAQAVLGVLLRR (UniProt Q12788),-0.0536
5,TBL1XR1_Q9BZK7_465_CVHIWNTQTGALVHSYR (UniProt Q9BZK7),0.151
6,TBC1D23_Q9NUY8_31_DLEEALEAGGCDLETLR (UniProt Q9NUY8),0.0492
7,TCEAL4_Q96EI5_34_MENEEQPQDERKPEVTCTLEDK (UniProt Q96EI5),0.114
8,TBCB_Q99426_83_LDQEDALLGSYPVDDGCR (UniProt Q99426),0.109
9,TARS_P26639_254_CGPLIDLCR (UniProt P26639),0.126
10,TAF2_Q6P1X5_94_INDLEAAFIYNDPTLEVCHSESK (UniProt Q6P1X5),-0.103
11,TALDO1_P37837_250_ALAGCDFLTISPK (UniProt P37837),0.0217
12,TBC1D9B_Q66K14_1079_DCATEEDEPPAPELHQDAAR (UniProt Q66K14),-0.105
13,TACC3_Q9Y6A5_828_ICDDLISK (UniProt Q9Y6A5),0.28
14,TARS_P26639_467_FQQDDAHIFCAMEQIEDEIK (UniProt P26639),0.194
15,SZT2_Q5T011_2893_EAPTSCESLDVSPPGAR (UniProt Q5T011),-0.219
16,TBCC_Q15814_284_AIVEDCSGIQFAPYTWSYPEIDK (UniProt Q15814),0.309
17,TBL1X_O60907_571_VGASASDGSVCVLDLR (UniProt O60907),-0.0134

# Same assay, conditions: 50 µM; THP-1; incubation time: 4 h
row,Target,probe-labelled cysteine peptide fold change
1,TBL3_Q12788_129_AIHTAPVATMAFDPTSTLLATGGCDGAVR (UniProt Q12788),0.303
2,TARBP2_Q15633_73_VTVGDTSCTGQGPSK (UniProt Q15633),0.0622
3,TAX1BP1_Q86VP1_196_CDQLQAEQK (UniProt Q86VP1),-0.305
4,TCEANC2_Q96MN5_163_ETFHLCSR (UniProt Q96MN5),0.461
5,TCF20_Q9UGU0_498_KADSCTNSEGSSQPEEQLK (UniProt Q9UGU0),-0.433
6,TBL3_Q12788_526_GLWCVQFSPMDQVLATASADGTIK (UniProt Q12788),0.0335
7,TANK_Q92844_318_TKPSNLVNTCIR (UniProt Q92844),-0.558
8,SZT2_Q5T011_865_HTCVVQYILFPPHSTSTK (UniProt Q5T011),0.0925
9,TAX1BP1_Q86VP1_196_ERCDQLQAEQK (UniProt Q86VP1),-0.327
10,TAF5_Q15542_273_FHGDQECYYQDDLR (UniProt Q15542),0.0665
11,SYNGR2_O43760_59_QMYCVFNR (UniProt O43760),-0.197
12,TARS_P26639_107_TTPYQIACGISQGLADNTVIAK (UniProt P26639),0.144
13,TATDN1_Q6P1N9_226_LMIETDAPWCGVK (UniProt Q6P1N9),-0.0967
14,TBP_P20226_221_MVCTGAK (UniProt P20226),-0.0931
15,TCIRG1_Q13488_238+241_KITDCFHCHVFPFLQQEEAR (UniProt Q13488),-0.136
16,TBC1D9B_Q66K14_876_ELFASLTPWACGSHTPLLAGR (UniProt Q66K14),-0.0551
17,TATDN1_Q6P1N9_76_DALHLAQTNGMFFSTVGCHPTR (UniProt Q6P1N9),0.0523
18,SYNE1_Q8NF91_6460_NLFSQAFPENGDNRDVIEDTLGCLLGR (UniProt Q8NF91),0.236

row,Target,probe-labelled cysteine peptide fold change
1,TBCB_Q99426_216_YFECQAK (UniProt Q99426),0.252
2,TANC1_Q9C0D5_1003_KGQCALVHSALR (UniProt Q9C0D5),-0.114
3,TAP1_Q03518_722_KPCVLILDDATSALDANSQLQVEQLLYESPER (UniProt Q03518),0.311
4,TBL3_Q12788_728_HCHEAQAVLGVLLRR (UniProt Q12788),-0.526
5,TBL1XR1_Q9BZK7_465_CVHIWNTQTGALVHSYR (UniProt Q9BZK7),0.312
6,TBC1D23_Q9NUY8_31_DLEEALEAGGCDLETLR (UniProt Q9NUY8),0.305
7,TCEAL4_Q96EI5_34_MENEEQPQDERKPEVTCTLEDK (UniProt Q96EI5),-0.277
8,TBCB_Q99426_83_LDQEDALLGSYPVDDGCR (UniProt Q99426),0.107
9,TARS_P26639_254_CGPLIDLCR (UniProt P26639),0.153
10,TAF2_Q6P1X5_94_INDLEAAFIYNDPTLEVCHSESK (UniProt Q6P1X5),0.0497
11,TALDO1_P37837_250_ALAGCDFLTISPK (UniProt P37837),0.0297
12,TBC1D9B_Q66K14_1079_DCATEEDEPPAPELHQDAAR (UniProt Q66K14),-0.118
13,TACC3_Q9Y6A5_828_ICDDLISK (UniProt Q9Y6A5),0.241
14,TARS_P26639_467_FQQDDAHIFCAMEQIEDEIK (UniProt P26639),0.497
15,SZT2_Q5T011_2893_EAPTSCESLDVSPPGAR (UniProt Q5T011),-0.105
16,TBCC_Q15814_284_AIVEDCSGIQFAPYTWSYPEIDK (UniProt Q15814),0.375
17,TBL1X_O60907_571_VGASASDGSVCVLDLR (UniProt O60907),0.0723
